Laboratory results published in patent publication EP0500785B1, “A HUMAN T CELL REACTIVE FELINE PROTEIN (TRFP) ISOLATED FROM HOUSE DUST AND USES THEREFOR” (IMMULOGIC PHARMACEUTICAL CORPORATION, priority 1989, dated 2002).
Not every detail of the peptide structures is certain; ends, links or a residue may be inferred. Ends that are not written are not given here.

Tests used:
[1] = system: TRFP primed T cell cultures; test: T cell proliferation assay (tritiated thymidine incorporation) of TRFP-primed T cells restimulated with allergens or peptides; format: cell-based, human; conditions: result in words
Procedure: Peripheral blood mononuclear cells (PBMC) were purified from 60 ml of heparinized blood from cat allergic patients. PBMC were subsequently treated as described below, although in individual cases, the length of time of cultivation with IL-2 and/or IL-4 and the specific peptides used for stimulation varied.
10 ml of PBMC from patient 131 at 10^6/ml were cultured at 37°C for 7 days in the presence of 5 micrograms purified TRFP/ml RPMI-1640 supplemented with 5% pooled human AB serum. Viable cells were purified by Ficoll-Hypaque centrifugation and cultured for three weeks at 5 units recombinant human IL-2/ml and 5 units recombinant human IL-4/ml. The resting T cells were then restimulated (secondary) with 5 micrograms TRFP at 2 x 10^5/ml in the presence of irradiated (3500 Rads) autologous PBMC at a concentration of 5 x 10^5/ml for three days, purified by Ficoll-Hypaque centrifugation and grown in 5 units IL-2 and 5 units IL-4/ml for two weeks. For assay, 2 x 10^4 resting secondary T cells were restimulated (tertiary) in the presence of 5 x 10^4 irradiated (3500 Rads) autologous PBMC or 2 x 10^4 transformed B cells (20,000 Rads) with various concentrations of allergens or their fragments in a volume of 200 microliters in a 96-well round bottom assay plates for 3 days. Each well then received 1 microCurie tritiated (methyl) thymidine for 16 hours. […]

[2] = system: Peripheral blood mononuclear cells (PBMC); test: Cytokine profiles (IL-2, IFN-γ, IL-4 cDNA) by PCR in a primary 36 hour PBMC culture; format: cell-based, human; conditions: one cat-allergic patient (Table 5); comparison in words
Procedure: Peripheral blood mononuclear cells (PBMC) were purified from cat-allergic patients as described in Example 5. Five x 10^6 PBMC were cultured at 2 x 10^6/ml for 36 hours in the presence of medium only, 20 micrograms purified TRFP/ml or 50 micrograms peptide/ml. The cells were then washed two times with phosphate buffered saline (PBS, pH 7.2) and lysed with 2 ml […] guanidinium isothiocyanate, 0.5% Sarkosyl, 5 mM sodium citrate, 0.1 M 2-mercaptoethanol, pH 7.0. The lysate was then forced through a 26 gauge needle to shear genomic DNA, and was layered onto a 2 ml cushion of 5.7 M CsCl, 0.01 M EDTA, pH 7.5 in diethylpyrocarbonate (DEPC)-treated water. The lysate was centrifuged at 35,000 RPM in a Beckman SW41 rotor for 18 hours at 20°C. The RNA pellet was resuspended in 0.4 ml TE (10 mM Tris, 1 mM EDTA) pH 7.5, 0.1% SDS, and then extracted three times with 0.5 ml phenol/0.2 ml chloroform. The RNA was then precipitated on dry ice with 2.5 volumes ice-cold ethanol, 1/10 volume 3 M sodium acetate, pH 5.2 in DEPC-treated water, rinsed once with 70% ethanol in DEPC-treated water, and dried. […]
The PCR products were extracted once with 25 microliters chloroform and 25 microliters of each sample were then electrophoresed on an 8% polyacrylamide gel at 250 V. The gel was dried and exposed to pre-flashed x-ray film. […] In this experiment, IL-2, IL-4 and IFN-gamma levels were measured. […]

Q: With “EITPAVKRDVDLFLTGT [Fel 1, EITPAVKRDVDLFLTGT]” as the sequence, how does the “secondary T cell response of peripheral blood lymphocytes” value ([1]; patient 131, Figure 9) read?
A: respond

Q: Which “T cell stimulatory activity” value ([1]; summarising Tables 2 and 3) does the source give for NARILKNCVD [Fel 4-3] here?
A: weak T cell stimulatory activity

Q: How did the IL-4 generation [2] turn out when LLLDLSLTKVNATEPERTAMKKIQDC [Fel 18] was run?
A: more IL-4 than certain other TRFP-derived peptides
